Two substances from publication PMC2672170 can be followed below.

This experiment has as its target T1, H2Av C-terminal tail peptide, unphosphorylated (Drosophila melanogaster).
T1 sequence (peptide, biotin on the N-terminus): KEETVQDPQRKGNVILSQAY
The experiment in a line: pull-down; N-terminally biotinylated H2Av peptides (phosphorylated or unphosphorylated) on streptavidin agarose beads, incubated with bacterially expressed and purified GST, GST-FHA or GST-BRCT of MU2; Coomassie-stained SDS-PAGE, bands identified by mass spectrometry; according to Stucki et al.; both purified.

No constants are given. Whether binding was seen depends on the method and setting.

“GST-BRCT domain of MU2 (C-terminal domain, aa 1019-1259 of MU2-PB) (Drosophila melanogaster) (domain or fragment)”: the binding result was “no binding”.

Take “GST-FHA domain of MU2 (N-terminal domain, aa 1-250 of MU2-PB) (Drosophila melanogaster) (domain or fragment)”: the binding entry is “no binding”.
